Consider 34 molecules from PubChem BioAssay AID330 (DTP/NCI, 2004).

The list shows only some results of the screen, not a fair sample: it is rich in T/C values a quarter to a half above the control, in often repeated tests (any T/C) and in doses without a T/C. Other doses and runs of a compound stand elsewhere. T/C gives the treated animals as a percentage of the vehicle group. Some doses have a count of surviving animals in place of a T/C: the source holds a T/C of zero for them, seemingly a mark for toxic or unscored doses. Some doses without a T/C left all or most animals alive at the check, yet need not have been tolerated: survival well below the control is almost never listed, so the zero probably covers shortened survival too. Survivors were counted at the toxicity check, usually on the fifth day, unless a day is given; later deaths do not show. Schedules are NCI's codes, taken here to give the interval after Q, in days (D) or hours (H), and the number of doses after X. Counts like (3×) give the number of equal values in this list. Some entries were tested several times; the results are listed from low to high. Where survival is the endpoint, the PubChem record calls one and a half times the control and up active, and a quarter to a half above the control has no call in these data; cut-offs in other NCI protocols can differ. Some T/C values carry the count of animals alive at the toxicity check (mostly the fifth day); where none is given, no animal had died by that day.

The assay relates to P388 leukemia ip, CD2F1 mice, survival T/C. Put plainly: NCI In Vivo Anticancer Drug Screen. Data for tumor model P388 Leukemia (intraperitoneal) in CD2F1 (CDF1) mice. The note with it: T/C endpoint: median survival time, higher T/C = longer survival.
[1] abbreviates: dose: 200.0 mg/kg/injection, schedule: Q01DX005 (ip), vehicle: saline with Tween-80.
Setting [2] is: dose: 240.0 mg/kg/injection, schedule: Q01DX005 (ip), vehicle: saline with Tween-80.
[3] abbreviates: dose: 100.0 mg/kg/injection, schedule: Q01DX009 (ip), vehicle: saline with Tween-80.
The mark [4] stands for this setting: dose: 200.0 mg/kg/injection, schedule: Q01DX009 (ip), vehicle: saline with Tween-80.
[5] abbreviates: dose: 400.0 mg/kg/injection, schedule: Q01DX001 (ip), vehicle: Klucel (hydroxypropylcellulose) (HPC).
The mark [6] stands for this setting: dose: 100.0 mg/kg/injection, schedule: Q01DX005 (ip), vehicle: saline with Tween-80.
Where [7] appears, read: dose: 50.0 mg/kg/injection, schedule: Q01DX005 (ip), vehicle: saline with Tween-80.
[8] abbreviates: dose: 200.0 mg/kg/injection, schedule: Q01DX009 (ip), vehicle: saline.
Setting [9] is: dose: 50.0 mg/kg/injection, schedule: Q01DX009 (ip), vehicle: saline with Tween-80.
Where [10] appears, read: dose: 100.0 mg/kg/injection, schedule: Q04DX002 (ip), vehicle: saline.

Regarding `N#CCc1ccc(C(C#N)C(=O)CCC(=O)C(C#N)c2ccc(CC#N)cc2)cc1` (stereo not drawn), the survivor count under setting [1] is given as 0 of 6. Turning to `Cc1[nH]c2ccc(N(C)C)cc2c(=O)c1Cc1c(C)[nH]c2ccc(N(C)C)cc2c1=O`, the survivor count under setting [2] is 6 of 6. As to `COC1/C=C/OC2(C)Oc3c(C)c(O)c4c(O)c(c(/C=N/N5C(C)CN(Cc6ccc([N+](=O)[O-])cc6)CC5C)c(O)c4c3C2=O)NC(=O)/C(C)=C\C=C\C(C)C(O)C(C)C(O)C(C)C(OC(C)=O)C1C` (stereo not drawn), the T/C under setting [3] was 126 % of control. The survivor count under setting [4] was 1 of 6 and 5 of 6. Regarding `Cc1csc2c3ccccc3cc(=O)n12`, the survivor count is on record as 1 of 6 (dose: 200.0 mg/kg/injection, schedule: Q01DX001 (ip), vehicle: Klucel (hydroxypropylcellulose) (HPC)) and 0 of 6 under setting [5]. For the molecule `O=c1nc(Nc2cccc(Cl)c2)oc2cc(Cl)oc(=O)c12`, the survivor count under setting [4] is recorded as 3 of 6. Turning to `CC1CCCC(C)N1Cc1ccccc1` (stereo not drawn), the survivor count runs as follows: under setting [6], 0 of 6; under setting [1], 0 of 6.

As to `CC1(C)NNC(=S)NN1`, the survivor count runs as follows: (dose: 30.0 mg/kg/injection, schedule: Q01DX005 (ip), vehicle: saline with Tween-80) 2 of 6 and 3 of 6; (dose: 60.0 mg/kg/injection, schedule: Q01DX005 (ip), vehicle: saline with Tween-80) 0 of 6; (dose: 120.0 mg/kg/injection, schedule: Q01DX005 (ip), vehicle: saline with Tween-80) 0 of 6; under setting [2], 0 of 6. For `O=c1c2ccccc2sc2cccc(NCCN3CCC(C4CCN(CCNc5cccc6sc7ccccc7c(=O)c56)CC4)CC3)c12`, the survivor count (dose: 25.0 mg/kg/injection, schedule: Q01DX005 (ip), vehicle: saline with Tween-80) was 6 of 6 (2×) and the survivor count under setting [7] is 6 of 6. On to `N#Cc1c(NN)n(C2OC(CO)C(O)C2O)c2ncnc(N)c12` (stereo not drawn), for which the T/C by setting is: (dose: 25.0 mg/kg/injection, schedule: Q04DX003 (ip), vehicle: saline) 131 % of control; (dose: 50.0 mg/kg/injection, schedule: Q04DX003 (ip), vehicle: saline) 140 % of control [5 of 6 alive]; (dose: 100.0 mg/kg/injection, schedule: Q04DX003 (ip), vehicle: saline) 127 % of control [4 of 6 alive]. For `O=C1OC(c2ccccc2)(c2ccccc2)CC12CC(c1ccccc1)(c1ccccc1)OC2=O`, the survivor count under setting [1] was 6 of 6.

Regarding `C=C1C(=O)OC2CC1C(O)C/C(C)=C/CC/C(C)=C/CCC2(C)O` (stereo not drawn), where the note is “dose: 64.0 mg/kg/injection, schedule: Q01DX009 (ip), vehicle: Klucel (hydroxypropylcellulose) (HPC)”, the survivor count was 3 of 6. For `Cc1cc(O)ccc1Nc1ccc(N(CCCl)CCCl)cc1`, the T/C (dose: 100.0 mg/kg/injection, schedule: Q04DX003 (ip), vehicle: Klucel (hydroxypropylcellulose) (HPC)) is 148 % of control.

Regarding `CCOCCC(O)CC` (stereo not drawn), the T/C (dose: 400.0 mg/kg/injection, schedule: Q04DX003 (ip), vehicle: saline) was 136 % of control. `CC(=O)OC(C(=O)CCl)C(OC(C)=O)C(OC(C)=O)C(=O)CCl` (stereo not drawn): the survivor count (dose: 50.0 mg/kg/injection, schedule: Q01DX009 (ip), vehicle: distilled water + Tween-80 + alcohol) was 2 of 6; the survivor count (dose: 100.0 mg/kg/injection, schedule: Q01DX009 (ip), vehicle: distilled water + Tween-80 + alcohol) was 0 of 6; the survivor count (dose: 200.0 mg/kg/injection, schedule: Q01DX009 (ip), vehicle: distilled water + Tween-80 + alcohol) was 0 of 6.

As to `COc1ccc(C2C3=C(CCC(CN(C)C)C3=O)OC3=C2C(=O)C(CN(C)C)CC3)cc1` (stereo not drawn), the survivor count (dose: 240.0 mg/kg/injection, schedule: Q01DX005 (ip), vehicle: saline) is 0 of 6. For the molecule `COc1ccc(OC)c2c(Cl)ccnc12`, the survivor count is, setting by setting: under setting [7], 0 of 6; under setting [6], 0 of 6; under setting [1], 0 of 6. Take `C=C1CCC(=O)NC1=O`: the survivor count is, setting by setting: under setting [6], 0 of 6; under setting [1], 0 of 6. Take `c1ccc(Sc2ncccn2)nc1`: under setting [8], the survivor count is 0 of 6. Regarding `C=Cn1ccnc1`, the T/C (dose: 25.0 mg/kg/injection, schedule: Q01DX009 (ip), vehicle: saline) is 126 % of control. Also, under setting [8], the survivor count is recorded as 5 of 6. For the molecule `CCCCC1C=CC2C(N1)N2C#N` (stereo not drawn), the survivor count under setting [9] is reported as 6 of 6 and the survivor count under setting [4] is 0 of 6. As to `COc1cc([C@@H]2c3cc4c(cc3[C@H](OC(C)=O)[C@H]3COC(=O)[C@@H]23)OCO4)cc(OC)c1OC`, the survivor count is, setting by setting: (dose: 44.0 mg/kg/injection, schedule: Q04DX003 (ip), vehicle: saline with Tween-80) 6 of 6; under setting [3], 5 of 6.

With `CC[C@@H]1C[C@H]2CC3c4[nH]c5ccc(O)cc5c4CCN(C2)C31`, the survivor count runs as follows: (dose: 200.0 mg/kg/injection, schedule: Q01DX001 (ip), vehicle: saline with Tween-80) 0 of 6; (dose: 400.0 mg/kg/injection, schedule: Q01DX001 (ip), vehicle: saline with Tween-80) 0 of 6. Regarding `CN=C(N)N/N=C/c1c2ccccc2c(C)c2ccccc12`, the survivor count under setting [10] is 3 of 6. Turning to `NC(=O)c1[nH]cnc1NN=NCCF`, the T/C runs as follows: (dose: 0.78 mg/kg/injection, schedule: Q01DX009 (ip), vehicle: distilled water + Tween-80) 144 % of control; (dose: 1.56 mg/kg/injection, schedule: Q01DX009 (ip), vehicle: distilled water + Tween-80) 126 % of control; (dose: 3.13 mg/kg/injection, schedule: Q01DX009 (ip), vehicle: distilled water + Tween-80) 142 % of control. Further, the survivor count (dose: 6.25 mg/kg/injection, schedule: Q01DX009 (ip), vehicle: distilled water + Tween-80) is recorded as 2 of 6; the survivor count (dose: 12.5 mg/kg/injection, schedule: Q01DX009 (ip), vehicle: distilled water + Tween-80) is reported as 0 of 6; the survivor count (dose: 25.0 mg/kg/injection, schedule: Q01DX009 (ip), vehicle: distilled water + Tween-80) is on record as 0 of 6; the survivor count (dose: 50.0 mg/kg/injection, schedule: Q01DX009 (ip), vehicle: distilled water + Tween-80) is listed as 0 of 6; the survivor count (dose: 100.0 mg/kg/injection, schedule: Q01DX009 (ip), vehicle: distilled water + Tween-80) was 0 of 6; the survivor count (dose: 200.0 mg/kg/injection, schedule: Q01DX009 (ip), vehicle: distilled water + Tween-80) is 0 of 6. In the case of `Cc1c(C)n(-c2ccccc2)c2nc(C)n(-c3ccccc3)c(=N)c12`, the survivor count (dose: 200.0 mg/kg/injection, schedule: Q01DX005 (ip), vehicle: Klucel (hydroxypropylcellulose) (HPC)) was 0 of 6. As for `CC(=O)Nc1ncnc2c(C3OC(COC(C)=O)C(OC(C)=O)C3OC(C)=O)[nH]nc12` (stereo not drawn), the survivor count under setting [2] was 3 of 6.

On to `Cc1ccc(-c2cc3cc4c(cc3[nH]2)Sc2ccccc2O4)cc1`, for which the survivor count under setting [5] was 5 of 6. Consider `CC(ON)C(=O)O` (stereo not drawn), for which the survivor count is, setting by setting: (dose: 100.0 mg/kg/injection, schedule: Q01DX005 (ip), vehicle: saline) 0 of 6; (dose: 200.0 mg/kg/injection, schedule: Q01DX005 (ip), vehicle: saline) 0 of 6. `CCN(CC)C(=S)S[Se](SC(=S)N(CC)CC)(SC(=S)N(CC)CC)SC(=S)N(CC)CC`: the survivor count (dose: 200.0 mg/kg/injection, schedule: Q01DX009 (ip), vehicle: Klucel (hydroxypropylcellulose) (HPC)) was 0 of 6. Take `CN(CCO)c1ccc([N+](=O)[O-])c2nonc12`: the T/C under setting [10] was 145 % of control. For the molecule `CC(C)n1ncc2c(N)ncnc21`, the survivor count runs as follows: (dose: 30.0 mg/kg/injection, schedule: Q01DX009 (ip), vehicle: saline) 6 of 6; (dose: 60.0 mg/kg/injection, schedule: Q01DX009 (ip), vehicle: saline) 4 of 6. For `O=C(Oc1ccc(C2c3cc(OC(=O)c4ccccc4)c(OC(=O)c4ccccc4)cc3CC3C(=O)OCC32)cc1OC(=O)c1ccccc1)c1ccccc1` (stereo not drawn), under setting [6], the survivor count was 5 of 5. Take `S=C1Cc2[nH]c(=S)sc(=S)c2C(=S)N1`: the survivor count reads like this: under setting [9], 6 of 6; under setting [4], 6 of 6.

Consider `CCN(C(=O)CCl)c1ccccc1C`, for which the survivor count (dose: 200.0 mg/kg/injection, schedule: Q04DX003 (ip), vehicle: saline with Tween-80) is 6 of 6.
